PubChem BioAssay AID493014 (National Center for Advancing Translational Sciences (NCATS), 2011)
This is one part of the list. The main result of the screen is listed elsewhere. These columns were measured beside it and carry no call. Most of these compounds were active or inconclusive in the main read-out, so they are no random draw. Words in brackets tell the shape of the fitted curve; partial curves, single points and poor fits give uncertain potencies.

Assay: qHTS Assay to Find Inhibitors of Chronic Active B-Cell Receptor Signaling
Conditions: ABC-DLBCL IkBa-CBG/CBR reporter, luminescence ratio (green luciferase fused to IkBa over red control in TMD8 lymphoma cells), 4 h
Summary of the method: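 Concentration-response series (up to 46 uM) were applied to TMD8 dual-reporter cells for 4 h at 37C with doxycycline. Green/red ratio, after filter-overlap correction, defined %Activity; red signal alone was normalised to basal cells and zero luminescence.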

[1] = measured here: CBR red luminescence, cell number
[2] = measured here: IkBa-CBG green luminescence

## NS(=O)(=O)c1ccc(N=Cc2c(O)c3ccccc3oc2=O)cc1
[1]
  AC50: 5.01 µM [falling, full curve]

## COC(=O)C1=C(C)NC2=C(C(=O)CCC2)C1c1coc2ccccc2c1=O (stereo not given)
[1]
  AC50: 23.1 µM [rising, partial curve]
[2]
  AC50: 32.6 µM [falling, partial curve, poor fit]

## Cc1cccc(/N=C2/NC(=O)C(Cc3ccccc3)S2)n1 (stereo not given)
[1]
  AC50: 0.447 µM [rising, full curve, poor fit]

## O=C(CN1C(=O)NC(Cc2c[nH]c3ccccc23)C1=O)Nc1cccc(S(=O)(=O)N2CCCCCC2)c1 (stereo not given)
[1]
  AC50: 25.9 µM [falling, partial curve, poor fit]

## CC1CCN(C(=O)COC(=O)[C@H](C)NS(=O)(=O)/C=C/c2ccccc2)CC1
[1]
  AC50: 29.1 µM [rising, single point]

## Cc1nc(NC(=O)c2ccccc2)nc2cc3c(cc12)OCO3
[1]
  AC50: 1.16 µM [falling, full curve]

## COc1ccc(NC(=O)C2CCN(S(=O)(=O)c3cccc4nonc34)CC2)cc1OC
[1]
  AC50: 20 µM [falling, partial curve, poor fit]

## COc1ccc(/C=C/C(=O)O)cc1S(=O)(=O)N1CCCCC1
[1]
  AC50: 35.5 µM [falling, single point]

## O=C(NNC(=O)c1ccccc1OCc1ccccc1)c1ccccc1O
[1]
  AC50: 11.2 µM [falling, partial curve]

## C=CCN=C(NC#N)SCC(=O)NCc1ccccc1
[1]
  AC50: 22.4 µM [rising, single point]

## CC(=O)Nc1cccc(-c2csc(Nc3cccc(C)n3)n2)c1
[1]
  AC50: 0.316 µM [falling, full curve, poor fit]

## C#CCSc1nsc(SCC#C)c1C#N
[1]
  AC50: 5.62 µM [rising, partial curve]

## COc1ccc(-c2nn(-c3ccccc3)cc2C(=O)NCC(c2cccs2)N2CCOCC2)cc1 (stereo not given)
[1]
  AC50: 2.31 µM [rising, full curve, poor fit]

## O=C(O)c1cccc(-c2ccc(/C=c3/sc4nc5ccccc5n4c3=O)o2)c1
[1]
  AC50: 7.94 µM [falling, partial curve]

## C/C(=N\NC(=O)c1ccc(F)cc1)c1ccccn1
[1]
  AC50: 5.62 µM [rising, single point]
[2]
  AC50: 7.08 µM [falling, partial curve]

## COc1cc(NC(=O)CN2CCN(c3ccccc3F)CC2)cc(OC)c1
[1]
  AC50: 8.2 µM [rising, partial curve]

## CCC(OC(=O)c1cc2sccc2n1C)C(=O)NCc1ccco1 (stereo not given)
[1]
  AC50: 25.1 µM [falling, single point]

## COc1ccc(-c2oc(=O)c3cc(OC)c(OC)cc3c2/C=C/c2ccc(F)cc2)cc1
[1]
  AC50: 29.1 µM [rising, single point]

## CSc1cccc(-n2cc(-c3ccc4c(c3)OCO4)[nH]c2=O)c1
[1]
  AC50: 20 µM [falling, single point]

## Cc1ccc(C)c(S(=O)(=O)N2C(=S)NC(=O)C2CC(C)C)c1 (stereo not given)
[1]
  AC50: 29.1 µM [rising, single point]

## Cc1ccc2c(c1)N(CCC(=O)NCc1ccco1)C(=O)CO2
[1]
  AC50: 15.8 µM [falling, partial curve]

## COc1ccc(N(CC(=O)N2CCOCC2)S(=O)(=O)c2ccccc2)cc1Cl
[1]
  AC50: 3.55 µM [rising, partial curve, poor fit]

## CCCc1nnc(NC(=O)c2cccs2)s1
[1]
  AC50: 11.2 µM [falling, partial curve, poor fit]

## O=C(NCCc1c[nH]c2ccccc12)N[C@@H](Cc1ccccc1)C(=O)O
[1]
  AC50: 5.01 µM [rising, full curve]

## O=C(/C=C/c1ccccc1)NC(=S)Nc1ccccc1O
[1]
  AC50: 20 µM [falling, single point]

## O=C(NCc1ccncc1)C(=O)Nc1nc2ccccc2s1
[1]
  AC50: 1.12 µM [rising, partial curve, poor fit]

## CCc1ccc(-c2nc(CN3CCC(C(=O)NCc4ccc(F)cc4)CC3)c(C)o2)cc1
[1]
  AC50: 31.6 µM [rising, partial curve, poor fit]

## O=C(OCC(=O)N1CCN(c2ccccc2)CC1)c1ccc(O)cc1O
[1]
  AC50: 0.501 µM [falling, full curve]

## COc1cc(C2C(C(=O)c3cc4ccccc4o3)=C(O)C(=O)N2CCN2CCOCC2)ccc1OCCC(C)C (stereo not given)
[1]
  AC50: 35.5 µM [falling, partial curve, poor fit]

## Nc1nc(-c2ccccc2)cc(-c2ccccc2O)n1
[1]
  AC50: 0.112 µM [falling, full curve, poor fit]
[2]
  AC50: 20 µM [rising, single point]

## CC1CCN(C(=O)Cn2c(SCC(=O)Nc3nccs3)nc3ccccc32)CC1
[1]
  AC50: 14.6 µM [rising, partial curve, poor fit]

## N#Cc1ccc(CN2CCN(C(=O)CCNS(=O)(=O)c3ccc(F)c(F)c3)CC2)cc1
[1]
  AC50: 29.1 µM [rising, single point]

## O=C(Oc1cccc2cccnc12)c1cccc(N2C(=O)C3C4CCC(C4)C3C2=O)c1 (stereo not given)
[1]
  AC50: 2.31 µM [rising, partial curve, poor fit]
[2]
  AC50: 23.1 µM [falling, single point]

## COc1ccc(NCC(=O)Nc2ccc(Br)cc2F)c(OC)c1
[1]
  AC50: 1.26 µM [falling, partial curve, poor fit]

## O=C(NC1CCCCC1)C(c1cccnc1)N(C(=O)CCl)c1cccc(Cl)c1 (stereo not given)
[1]
  AC50: 11.6 µM [falling, partial curve]

## COc1ccc(C(=O)C[n+]2ccc3ccccc3c2C)cc1
[1]
  AC50: 35.5 µM [rising, single point]

## O=C(c1ccc(F)cc1)N1CCN(c2ccc([N+](=O)[O-])c(N3CCCCC3)c2)CC1
[1]
  AC50: 35.5 µM [falling, single point]

## O=C(CCN1C(=O)/C(=C/c2ccccc2Cl)SC1=S)Nc1ccccc1C(=O)O
[1]
  AC50: 35.5 µM [falling, single point]

## CC(C)Cn1c(-c2ccco2)n[nH]c1=S
[1]
  AC50: 20.6 µM [rising, single point]

## Cc1cc(NC(=O)c2ccccc2)no1
[1]
  AC50: 2 µM [falling, full curve]

## CCCC(=O)NC(c1ccccc1OC)c1ccc2cccnc2c1O (stereo not given)
[1]
  AC50: 2.24 µM [falling, full curve, poor fit]

## C[C@H](CO)N1C[C@H](C)[C@@H](CN(C)C(=O)Nc2ccccc2)Oc2ccc(NC(=O)c3ccncc3)cc2C1=O
[1]
  AC50: 0.164 µM [rising, full curve, poor fit]

## CN(C)NC(=S)NC(=O)C12CC3CC(CC(C3)C1)C2
[1]
  AC50: 2.82 µM [rising, full curve]
[2]
  AC50: 6.31 µM [falling, full curve]

## Cc1ccc2nc(C3CCCCC3)[nH]c2c1
[1]
  AC50: 14.1 µM [falling, partial curve, poor fit]

## O=C(COC(=O)c1ccc(Cl)nc1)c1ccc2c(c1)OCCO2
[1]
  AC50: 2.82 µM [rising, partial curve, poor fit]

## COc1ccc(N2CCN(C(=O)CSc3nnc(Cn4nnc5ccccc54)n3C)CC2)cc1
[1]
  AC50: 2.31 µM [rising, partial curve, poor fit]

## Nc1nc(NC(=O)c2ccco2)nn1-c1ccccc1
[1]
  AC50: 10 µM [falling, partial curve]

## Cc1nc(-c2ccccc2)sc1-c1nc(-c2cccnc2)ncc1S(=O)(=O)c1ccccc1
[1]
  AC50: 5.62 µM [rising, partial curve, poor fit]

## O=C(/C=C/c1ccc(Cl)cc1)Nc1ccccc1N1CCOCC1
[1]
  AC50: 2.06 µM [falling, partial curve]

## CCOC(=O)c1sc(NC(=O)c2ccc(=O)[nH]c2)nc1C
[1]
  AC50: 2.24 µM [falling, full curve]

## O=Cc1ccc2noc(-c3ccc(Cl)cc3)c2c1
[1]
  AC50: 6.51 µM [rising, partial curve, poor fit]

## Cc1cc(OCC(=O)N2CCc3ccccc3C2)c2c(-c3ccccc3)cc(=O)oc2c1
[1]
  AC50: 14.6 µM [falling, partial curve]

## CCCc1nn(C)c(C(=O)Nc2cccc(CC)c2)c1Cl
[1]
  AC50: 9.2 µM [rising, partial curve, poor fit]

## CCOC(=O)C1C(c2ccccc2)NC(=S)NC1(C)O (stereo not given)
[1]
  AC50: 28.2 µM [falling, single point]

## O=C1Nc2cc(Cl)c(Cl)cc2N(O)N1c1ccc(Cl)c(Cl)c1
[1]
  AC50: 10 µM [falling, partial curve]

## COc1cccc(Nc2nc(-c3sc(C)nc3C)cs2)c1
[1]
  AC50: 35.5 µM [falling, single point]

## Cc1ccc(SCC(=O)c2ccc(CC(=O)O)s2)cc1
[1]
  AC50: 20 µM [falling, partial curve]

## Cc1ccccc1NC(=S)NNC(=O)c1csc2c1CCC(C)C2 (stereo not given)
[1]
  AC50: 1.03 µM [falling, full curve]

## O=C(Nc1ccc(C(=O)O)cc1)Nc1cccc2ccccc12
[1]
  AC50: 8.91 µM [falling, partial curve, poor fit]

## O=C1CSCC(=O)N1c1ccccc1
[1]
  AC50: 29.1 µM [rising, single point]
[2]
  AC50: 23.1 µM [falling, partial curve, poor fit]

## O=[N+]([O-])/C(C(Cl)=C(Cl)Cl)=C(/NC1CC1)Sc1ccccc1
[1]
  AC50: 35.5 µM [falling, single point]

## C(=C\c1ccccn1)/c1ccncc1
[1]
  AC50: 5.62 µM [rising, single point]

## Cc1cccc(NC(=O)C2CCN(S(=O)(=O)c3c(C)c(C)cc(C)c3C)CC2)n1
[1]
  AC50: 9.2 µM [falling, partial curve]
[2]
  AC50: 9.2 µM [rising, partial curve, poor fit]
